Test results taken from patent US20240301063A1 (SHANDONG NEW TIME PHARMACEUTICAL, published 2024).
These are yes or no findings as the source states them, for the method shown. Some binding calls cover weakened binding; strength is not graded here.

Biological target: cynomolgus monkey BCMA protein (cynomolgus monkey)
Assay: bridging ELISA, coated antigen

B1: bispecific antibody AP163 (bispecific antibody)
chain: QVQLVQSGAEVKKPGSSVKVSCKASGGTFSNYWMHWVRQAPGQGLEWMGATYRGHSDTYYNQKFKGRVTITADKSTSTAYMELSSLRSEDTAVYYCARGAIYDGYDVLDNWGQGTLVTVSSGGGGSGGGGSGGGGSDIQMTQSPSSLSASVGDRVTITCSASQDISNYLNWYQQKPGKAPKLLIYYTSNLHSGVPSRFSGSGSGTDFTLTISSLQPEDFATYYCQQYRKLPWTFGQGTKLEIKGGGGGGSGGGGSGGGGSSSSSKAPPPSEVQLLESGGGLVQPGGSLKLSCAASGFTFNTYAMNWVRQAPGKGLEWVARIRSKYNNYATYYADSVKDRFTISRDDSKNTAYLQMNNLKTEDTAVYYCVRHGNFGNSYVSWFAYWGQGTLVTVSSGGGGSGGGGSGGGGSELVVTQEPSLTVSPGGTVTLTCRSSTGAVTTSNYANWVQQKPGQAPRGLIGGTNKRAPGTPARFSGSLLGGKAALTLSGVQPEDEAEYYCALWYSNLWVFGGGTKLTVLDKTHTCPPCPAPEAAGGPSVFLFPPKPKDQLMISRTPEVTCVVVDVSHEDPEVKFNWYVDGVEVHNAKTKPREEQYASTYRVVSVLTVLHQDWLNGKEYKCKVSNKALPASIEKTISKAKGQPREPQVYTLPPSRDELTKNQVSLTCLVKGFYPSDIAVEWESNGQPENNYKTTPPVLDSDGSFFLYSKLTVDKSRWQQGNVFSCSVLHEALHNHYTQKSLSLSPG
notes: human IgG1 Fc with L234A, L235A, T250Q, N297A, P331S, M428L and K447 deleted (EU); also called anti-BCMA×CD3 bispecific antibody
In the case of B1, the binding is reported as “binds”.
